From PMC3059644 (Frontiers in Psychiatry, 2010)

Tested on: atypical adenosine A2A receptors
Experiment: Displacement of [3H]CGS21680 binding in rat striatum in the presence of CSC (atypical sites)
Conditions: Figure 3, 200 nmol/L CSC

| SMILES | Hill Slope |
| --- | --- |
| CCn1c(=O)c2c(nc(/C=C/c3ccc(OC)c(OC)c3)n2C)n(CC)c1=O [KW6002, (E)-1,3-diethyl-8-(3,4-dimethoxystyryl)-7-methyl-3,7-dihydro-1H-purine-2,6,dione] | -1.408 |
| CCCCc1nc(N)c2nc(-n3nccn3)n(C)c2n1 [ST1535, 2 butyl-9-methyl-8-(2H-1,2,3-triazol 2-yl)-9H-purin-6-xylamine] | -1.045 |
| Nc1nc(NCCc2ccc(O)cc2)nc2nc(-c3ccco3)nn12 [ZM241385] | -0.6052 |
